Experimental findings from US20090325959A1 (priority 2008, published 2009) are described below.

Protein sequences, listed by entry. Tags and fused reporters are not part of them. Residues count along the entry.
UniProt Q13464, 17-535 limits assumed: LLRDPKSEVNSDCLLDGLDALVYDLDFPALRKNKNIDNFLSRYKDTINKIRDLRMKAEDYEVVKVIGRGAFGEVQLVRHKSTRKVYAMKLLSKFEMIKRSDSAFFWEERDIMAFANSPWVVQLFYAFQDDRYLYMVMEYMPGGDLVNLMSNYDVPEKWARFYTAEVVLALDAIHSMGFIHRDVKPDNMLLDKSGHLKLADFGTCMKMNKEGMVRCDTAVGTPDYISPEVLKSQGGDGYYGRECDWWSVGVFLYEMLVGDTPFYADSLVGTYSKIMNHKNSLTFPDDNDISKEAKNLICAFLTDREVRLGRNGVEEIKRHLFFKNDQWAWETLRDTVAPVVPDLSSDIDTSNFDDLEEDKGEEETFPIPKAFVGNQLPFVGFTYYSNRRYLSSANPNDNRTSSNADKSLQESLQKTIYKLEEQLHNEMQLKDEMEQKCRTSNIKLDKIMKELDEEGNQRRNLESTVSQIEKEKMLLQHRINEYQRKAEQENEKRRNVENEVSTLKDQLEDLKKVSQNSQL
UniProt Q9Y243, whole entry: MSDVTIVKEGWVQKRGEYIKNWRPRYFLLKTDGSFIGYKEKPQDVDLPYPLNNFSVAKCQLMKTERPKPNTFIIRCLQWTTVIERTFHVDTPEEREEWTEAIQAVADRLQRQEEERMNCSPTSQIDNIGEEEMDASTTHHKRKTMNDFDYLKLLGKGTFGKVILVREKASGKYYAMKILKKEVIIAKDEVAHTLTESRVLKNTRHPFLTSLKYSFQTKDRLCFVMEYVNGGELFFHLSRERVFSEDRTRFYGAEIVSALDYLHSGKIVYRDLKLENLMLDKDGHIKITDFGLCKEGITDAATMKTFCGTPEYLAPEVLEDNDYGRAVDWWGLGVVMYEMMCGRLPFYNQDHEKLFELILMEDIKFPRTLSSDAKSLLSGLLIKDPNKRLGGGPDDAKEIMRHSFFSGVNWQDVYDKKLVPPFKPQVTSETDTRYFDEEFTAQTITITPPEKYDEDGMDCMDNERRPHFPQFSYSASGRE
UniProt P23443, 1-421 T412E limits assumed: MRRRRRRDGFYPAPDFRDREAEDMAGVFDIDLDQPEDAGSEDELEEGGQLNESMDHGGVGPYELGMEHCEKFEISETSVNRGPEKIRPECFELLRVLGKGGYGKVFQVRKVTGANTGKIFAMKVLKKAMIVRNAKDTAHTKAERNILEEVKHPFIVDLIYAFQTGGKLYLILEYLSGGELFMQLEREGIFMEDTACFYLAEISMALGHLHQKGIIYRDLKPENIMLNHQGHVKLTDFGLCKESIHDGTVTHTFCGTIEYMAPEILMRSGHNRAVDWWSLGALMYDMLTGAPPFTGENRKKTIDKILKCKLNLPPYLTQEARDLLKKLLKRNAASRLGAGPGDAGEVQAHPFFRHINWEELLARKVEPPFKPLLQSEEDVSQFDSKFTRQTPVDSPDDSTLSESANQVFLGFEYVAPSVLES

Data set [1] concerns the target ROCK1 (Homo sapiens, UniProt Q13464). As to the kind of experiment: Rho kinase inhibition assay (IMAP fluorescence polarization), ROCK1.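 Note: kinase reaction run 60 min at room temperature, then phosphorylated substrate captured on IMAP beads for 30 min, with fluorescence polarization read in mP.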 Format: biochemical.
The target in data set [2] is Akt3 human enzyme (Homo sapiens, UniProt Q9Y243). As to the kind of experiment: Akt3 inhibition assay (IMAP FP).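 Note: kinase reaction run 60 min at room temperature after 30 µM ATP start, phosphorylated substrate captured on IMAP beads and read as fluorescence polarization (mP).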 Format: biochemical.
Data set [3] deals with p70S6K human enzyme (Homo sapiens, UniProt P23443, T412E). As to the kind of experiment: p70S6K inhibition assay (IMAP FP).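 Note: kinase reaction run at room temperature, phosphorylated substrate captured on IMAP beads and read as fluorescence polarization in mP, IC50 then converted to Ki.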 Format: biochemical.
Data set [4] is described as follows: Compound plasma concentrations in unsensitized mice at 15 min post administration. Format: in vivo, mouse. To be noted: mean compound plasma concentration in mice at 15 minutes post oral administration.

Each structure is given as a SMILES string. Where two headings read alike, the source gives them in different places. Structures were worked out from names or drawings and are uncertain.

By Ki is commonly meant the dissociation constant of the complex between target and ligand, obtained from inhibition or displacement. In the case of `Cc1ccc(CN2CCC[C@@H](Nc3ccc4[nH]ncc4c3)C2)cc1NS(C)(=O)=O`, the Ki is 9.5 nM in data set [1] (read-out: ROCK1 Ki, Avg, 10 μM ATP); 9.5 nM in data set [1] (read-out: ROCK1 Ki, average Ki); 315 nM in data set [2] (read-out: Akt3 Ki, Avg, 30 μM ATP, Ki=IC50/(1+([ATP Challenge]/EC50 ATP))); 315 nM in data set [2] (read-out: Akt3 Ki, average Ki); 532 nM in data set [3] (read-out: p70S6K Ki, Avg, 30 μM ATP, Ki=IC50/(1+([ATP Challenge]/EC50 ATP))); 532 nM in data set [3] (read-out: p70S6K Ki, average Ki). The “Mouse Oral PK” value in data set [4] is 567 nM.
